In US4311689A, “Method and container for production of diagnostic scanning” (priority 1978, dated 1982):

Assay: Labelling efficiency / extent of complex formation with technetium-99m by thin layer chromatography on silica gel

O=C(O)C(=O)O [oxalic acid]
yield of complex (tin foil degreased but not activated, pH 4.7, 15 minutes, variable): around 40%

O=C(O)CN(CCN(CC(=O)O)CC(=O)O)CC(=O)O
technetium activity present as a complex (tin foil, unadjusted pH 4.0, 15 minutes): all the technetium activity was present as a complex

O=C(O)C1=CC(=C(c2ccc(O)c(C(=O)O)c2)c2ccc(O)c(C(=O)O)c2)C=CC1=O [aluminon]
pertechnetate reduced to give a complex of technetium (tin foil, pH 5, 15 minutes): Essentially all
